Measured values from the supplement of paper PMC12823440, “Inhibitors supercharge kinase turnover through native proteolytic circuits” (Nature, 2025).
Structures can show the parent of a compound that is named as a salt. This is one part of the list. The calls rarely recur for the same compound in another form.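 Kinases were expressed as nanoluciferase fusions in K562 cells and luminescence was read every 4 h between 2 and 18 h as percent of control, DMSO set to 100% and a positive control to 0%. A time point counts as decreased when the signal drops significantly (2 sigma). The hit call is the authors' own, does not follow from the count of time points alone, and its rule is not shown.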

Amino acid sequences for entries named in this document (tags omitted). A change or cut given only in a name is not applied to a line headed by its entry.
UniProt O14965: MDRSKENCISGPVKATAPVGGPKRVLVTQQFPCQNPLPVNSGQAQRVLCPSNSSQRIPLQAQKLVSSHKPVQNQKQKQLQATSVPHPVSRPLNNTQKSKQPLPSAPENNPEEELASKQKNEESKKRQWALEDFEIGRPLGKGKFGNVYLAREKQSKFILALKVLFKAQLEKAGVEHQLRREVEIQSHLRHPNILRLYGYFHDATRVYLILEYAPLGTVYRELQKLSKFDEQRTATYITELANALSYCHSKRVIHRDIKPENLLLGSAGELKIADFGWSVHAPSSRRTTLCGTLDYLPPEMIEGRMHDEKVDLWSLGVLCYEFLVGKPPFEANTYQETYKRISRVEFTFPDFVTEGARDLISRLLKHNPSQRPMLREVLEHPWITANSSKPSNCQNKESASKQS
UniProt Q96GD4, whole entry: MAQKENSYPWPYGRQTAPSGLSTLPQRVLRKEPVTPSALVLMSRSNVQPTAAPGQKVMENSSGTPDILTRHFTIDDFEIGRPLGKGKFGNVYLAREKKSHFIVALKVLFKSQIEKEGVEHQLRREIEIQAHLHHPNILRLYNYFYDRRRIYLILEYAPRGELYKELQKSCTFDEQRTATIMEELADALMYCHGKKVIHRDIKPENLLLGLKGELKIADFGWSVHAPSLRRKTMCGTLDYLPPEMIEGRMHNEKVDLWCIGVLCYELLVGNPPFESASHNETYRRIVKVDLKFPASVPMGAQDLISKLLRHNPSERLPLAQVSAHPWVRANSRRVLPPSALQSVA
UniProt P51451: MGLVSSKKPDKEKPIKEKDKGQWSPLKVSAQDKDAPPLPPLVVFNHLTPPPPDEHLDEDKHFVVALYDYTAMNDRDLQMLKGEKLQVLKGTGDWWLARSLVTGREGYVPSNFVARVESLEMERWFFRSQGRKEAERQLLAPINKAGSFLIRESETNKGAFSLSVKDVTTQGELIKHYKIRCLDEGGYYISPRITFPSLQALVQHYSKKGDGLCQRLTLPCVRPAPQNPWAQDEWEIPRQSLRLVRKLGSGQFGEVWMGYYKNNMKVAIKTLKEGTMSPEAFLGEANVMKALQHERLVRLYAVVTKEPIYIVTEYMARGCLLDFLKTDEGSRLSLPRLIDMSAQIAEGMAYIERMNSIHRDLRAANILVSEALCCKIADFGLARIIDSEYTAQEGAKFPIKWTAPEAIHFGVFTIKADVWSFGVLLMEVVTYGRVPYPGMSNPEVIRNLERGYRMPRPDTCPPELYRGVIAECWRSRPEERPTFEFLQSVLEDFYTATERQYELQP
UniProt P51813: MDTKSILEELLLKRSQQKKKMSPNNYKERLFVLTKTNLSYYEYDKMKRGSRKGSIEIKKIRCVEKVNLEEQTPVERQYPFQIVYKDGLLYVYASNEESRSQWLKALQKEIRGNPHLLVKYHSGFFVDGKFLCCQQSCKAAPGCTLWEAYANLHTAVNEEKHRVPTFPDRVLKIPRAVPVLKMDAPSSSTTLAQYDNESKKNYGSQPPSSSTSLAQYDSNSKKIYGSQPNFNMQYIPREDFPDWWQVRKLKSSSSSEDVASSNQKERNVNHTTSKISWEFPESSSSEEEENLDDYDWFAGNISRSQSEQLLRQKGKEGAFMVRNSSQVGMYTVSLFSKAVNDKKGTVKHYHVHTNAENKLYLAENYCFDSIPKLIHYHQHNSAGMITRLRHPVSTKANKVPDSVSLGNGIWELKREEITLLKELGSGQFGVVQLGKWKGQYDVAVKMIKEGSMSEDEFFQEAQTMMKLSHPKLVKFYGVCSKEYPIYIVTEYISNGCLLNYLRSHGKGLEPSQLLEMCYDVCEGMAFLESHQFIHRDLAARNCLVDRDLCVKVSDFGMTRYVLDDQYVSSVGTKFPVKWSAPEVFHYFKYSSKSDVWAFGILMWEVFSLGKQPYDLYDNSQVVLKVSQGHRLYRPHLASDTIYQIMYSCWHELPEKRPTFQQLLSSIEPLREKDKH
UniProt P15056, whole entry, looked up: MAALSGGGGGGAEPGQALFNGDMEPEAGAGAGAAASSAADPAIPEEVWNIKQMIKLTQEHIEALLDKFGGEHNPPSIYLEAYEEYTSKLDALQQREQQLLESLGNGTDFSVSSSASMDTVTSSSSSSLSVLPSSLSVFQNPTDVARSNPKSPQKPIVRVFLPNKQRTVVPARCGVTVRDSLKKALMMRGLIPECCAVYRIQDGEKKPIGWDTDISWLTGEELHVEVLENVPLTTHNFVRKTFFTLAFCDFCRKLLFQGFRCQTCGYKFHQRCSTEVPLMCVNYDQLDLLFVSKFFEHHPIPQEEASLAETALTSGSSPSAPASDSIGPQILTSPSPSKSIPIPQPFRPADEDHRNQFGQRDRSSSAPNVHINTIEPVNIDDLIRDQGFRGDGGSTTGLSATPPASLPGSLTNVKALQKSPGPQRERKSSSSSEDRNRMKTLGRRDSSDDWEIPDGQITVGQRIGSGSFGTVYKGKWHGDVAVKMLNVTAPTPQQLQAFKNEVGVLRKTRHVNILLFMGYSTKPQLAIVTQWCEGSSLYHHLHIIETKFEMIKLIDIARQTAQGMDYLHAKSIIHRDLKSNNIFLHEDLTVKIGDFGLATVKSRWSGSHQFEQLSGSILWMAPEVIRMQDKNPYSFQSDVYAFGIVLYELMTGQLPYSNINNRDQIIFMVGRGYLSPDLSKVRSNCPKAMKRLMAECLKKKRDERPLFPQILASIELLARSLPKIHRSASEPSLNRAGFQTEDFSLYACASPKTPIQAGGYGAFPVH
UniProt Q06187: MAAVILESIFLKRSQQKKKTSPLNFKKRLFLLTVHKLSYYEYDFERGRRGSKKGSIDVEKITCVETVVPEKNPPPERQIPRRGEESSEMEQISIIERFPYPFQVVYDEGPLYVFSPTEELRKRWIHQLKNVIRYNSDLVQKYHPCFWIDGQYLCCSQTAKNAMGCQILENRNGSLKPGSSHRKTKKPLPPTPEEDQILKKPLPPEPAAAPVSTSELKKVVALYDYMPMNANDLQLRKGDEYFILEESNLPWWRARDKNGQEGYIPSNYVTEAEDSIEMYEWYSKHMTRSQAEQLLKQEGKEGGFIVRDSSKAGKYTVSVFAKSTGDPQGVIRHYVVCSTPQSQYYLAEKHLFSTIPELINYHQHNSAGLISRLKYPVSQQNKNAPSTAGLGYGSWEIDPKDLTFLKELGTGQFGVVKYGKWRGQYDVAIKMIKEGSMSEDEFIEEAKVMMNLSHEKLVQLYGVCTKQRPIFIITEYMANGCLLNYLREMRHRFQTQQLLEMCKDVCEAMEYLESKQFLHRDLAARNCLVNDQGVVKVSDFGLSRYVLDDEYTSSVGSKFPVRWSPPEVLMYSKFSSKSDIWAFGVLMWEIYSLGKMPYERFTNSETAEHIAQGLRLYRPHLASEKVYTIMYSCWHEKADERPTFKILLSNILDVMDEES
UniProt Q9UQM7, whole entry: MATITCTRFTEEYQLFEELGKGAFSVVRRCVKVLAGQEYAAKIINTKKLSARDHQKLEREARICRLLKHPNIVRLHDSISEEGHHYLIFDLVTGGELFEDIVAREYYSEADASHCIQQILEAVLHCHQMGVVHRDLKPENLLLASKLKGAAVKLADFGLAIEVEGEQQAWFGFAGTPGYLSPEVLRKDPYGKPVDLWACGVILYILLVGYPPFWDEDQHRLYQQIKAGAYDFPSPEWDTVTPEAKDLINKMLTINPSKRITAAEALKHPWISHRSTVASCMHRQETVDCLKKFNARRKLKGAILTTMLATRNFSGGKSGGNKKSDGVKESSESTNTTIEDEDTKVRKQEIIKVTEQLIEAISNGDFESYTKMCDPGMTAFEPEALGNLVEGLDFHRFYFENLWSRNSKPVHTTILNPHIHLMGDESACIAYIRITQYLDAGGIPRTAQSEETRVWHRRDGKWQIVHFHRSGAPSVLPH
UniProt Q13555: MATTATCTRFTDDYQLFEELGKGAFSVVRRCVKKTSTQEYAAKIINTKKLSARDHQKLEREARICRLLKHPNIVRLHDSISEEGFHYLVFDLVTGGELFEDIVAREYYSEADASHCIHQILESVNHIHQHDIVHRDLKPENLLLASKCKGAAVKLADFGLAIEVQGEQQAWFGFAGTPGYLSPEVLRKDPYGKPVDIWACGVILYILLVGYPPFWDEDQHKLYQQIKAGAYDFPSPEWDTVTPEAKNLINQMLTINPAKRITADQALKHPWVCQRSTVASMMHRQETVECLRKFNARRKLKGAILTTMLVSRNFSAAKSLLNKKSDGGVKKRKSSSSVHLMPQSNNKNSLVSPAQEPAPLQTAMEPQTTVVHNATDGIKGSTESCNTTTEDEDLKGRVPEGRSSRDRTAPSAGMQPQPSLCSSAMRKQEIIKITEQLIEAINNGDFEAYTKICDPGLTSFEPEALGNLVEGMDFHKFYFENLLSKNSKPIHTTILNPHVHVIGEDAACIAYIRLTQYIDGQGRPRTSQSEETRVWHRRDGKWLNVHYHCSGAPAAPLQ
UniProt Q15131: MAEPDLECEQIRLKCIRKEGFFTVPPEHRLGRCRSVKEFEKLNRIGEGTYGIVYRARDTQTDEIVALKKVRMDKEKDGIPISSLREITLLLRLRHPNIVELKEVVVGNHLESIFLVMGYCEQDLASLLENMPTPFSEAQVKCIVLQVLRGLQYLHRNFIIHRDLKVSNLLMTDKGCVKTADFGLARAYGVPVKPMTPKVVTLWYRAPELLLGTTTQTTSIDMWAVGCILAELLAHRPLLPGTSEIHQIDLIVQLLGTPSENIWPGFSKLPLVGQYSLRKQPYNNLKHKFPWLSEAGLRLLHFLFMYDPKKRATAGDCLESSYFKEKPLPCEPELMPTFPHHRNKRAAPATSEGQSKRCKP
UniProt Q00526: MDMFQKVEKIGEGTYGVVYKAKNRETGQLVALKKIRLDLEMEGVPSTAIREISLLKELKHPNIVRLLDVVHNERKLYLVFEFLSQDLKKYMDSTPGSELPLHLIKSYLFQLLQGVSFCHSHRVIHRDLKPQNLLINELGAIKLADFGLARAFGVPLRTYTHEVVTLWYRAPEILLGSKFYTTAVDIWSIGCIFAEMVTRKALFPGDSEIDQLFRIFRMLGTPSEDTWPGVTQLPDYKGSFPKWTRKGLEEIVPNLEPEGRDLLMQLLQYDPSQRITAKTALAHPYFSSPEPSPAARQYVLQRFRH
UniProt Q00535, whole entry, looked up: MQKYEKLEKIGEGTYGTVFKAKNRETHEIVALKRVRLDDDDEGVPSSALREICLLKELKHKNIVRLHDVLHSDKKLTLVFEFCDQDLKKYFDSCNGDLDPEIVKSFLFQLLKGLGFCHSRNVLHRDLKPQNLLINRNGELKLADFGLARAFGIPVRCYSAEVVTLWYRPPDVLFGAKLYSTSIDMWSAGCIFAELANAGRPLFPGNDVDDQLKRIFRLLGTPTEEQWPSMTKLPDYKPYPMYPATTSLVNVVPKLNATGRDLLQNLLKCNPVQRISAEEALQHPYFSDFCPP
UniProt O96017, whole entry: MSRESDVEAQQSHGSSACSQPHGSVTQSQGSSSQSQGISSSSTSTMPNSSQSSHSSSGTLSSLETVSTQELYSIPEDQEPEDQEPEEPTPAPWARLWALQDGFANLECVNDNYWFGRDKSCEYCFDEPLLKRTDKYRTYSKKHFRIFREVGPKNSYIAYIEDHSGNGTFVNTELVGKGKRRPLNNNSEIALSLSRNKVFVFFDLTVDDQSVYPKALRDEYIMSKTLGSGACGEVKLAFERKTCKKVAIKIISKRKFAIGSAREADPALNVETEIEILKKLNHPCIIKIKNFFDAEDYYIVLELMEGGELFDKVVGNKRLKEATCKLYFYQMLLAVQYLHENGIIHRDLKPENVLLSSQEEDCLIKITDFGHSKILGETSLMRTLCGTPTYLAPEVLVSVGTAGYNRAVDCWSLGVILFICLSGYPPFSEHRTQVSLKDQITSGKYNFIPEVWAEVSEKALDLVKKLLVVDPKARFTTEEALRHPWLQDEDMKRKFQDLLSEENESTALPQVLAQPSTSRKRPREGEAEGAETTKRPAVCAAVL
UniProt P41240: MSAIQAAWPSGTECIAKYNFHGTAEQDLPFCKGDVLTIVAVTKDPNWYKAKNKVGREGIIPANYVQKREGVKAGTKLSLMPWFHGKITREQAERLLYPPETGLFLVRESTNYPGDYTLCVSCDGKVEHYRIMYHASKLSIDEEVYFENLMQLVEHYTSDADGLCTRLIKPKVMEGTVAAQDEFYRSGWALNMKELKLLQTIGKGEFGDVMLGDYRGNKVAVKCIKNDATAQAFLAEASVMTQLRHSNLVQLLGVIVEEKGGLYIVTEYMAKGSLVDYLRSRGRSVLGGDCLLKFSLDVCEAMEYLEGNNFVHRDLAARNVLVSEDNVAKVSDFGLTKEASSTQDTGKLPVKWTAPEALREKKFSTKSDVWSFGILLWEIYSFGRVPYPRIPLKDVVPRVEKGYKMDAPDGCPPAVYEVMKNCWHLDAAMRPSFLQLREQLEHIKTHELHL

Columns and labels:
Experiment in all cases: number of time points (of 5) at which kinase-Nluc abundance scored as decreased, DMSO-normalised (count); higher = more persistent destabilization
Settings in all cases: K562; 2-18 h
ALK = ALK (UniProt Q9UM73)
ARAF = ARAF (UniProt P10398)
AURKA = AURKA (UniProt O14965)
AURKB = AURKB (UniProt Q96GD4)
AURKC = AURKC (UniProt Q9UQB9)
BLK = BLK (UniProt P51451)
BMX = BMX (UniProt P51813)
BRAF = BRAF (UniProt P15056)
BRAF_V600E = system: BRAF_V600E
BTK = BTK (UniProt Q06187)
CAMK2A = CAMK2A (UniProt Q9UQM7)
CAMK2G = CAMK2G (UniProt Q13555)
CDK10 = CDK10 (UniProt Q15131)
CDK2 = CDK2 (UniProt P24941)
CDK3 = CDK3 (UniProt Q00526)
CDK5 = CDK5 (UniProt Q00535)
CDK6 = CDK6 (UniProt Q00534)
CHEK2 = CHEK2 (UniProt O96017)
CSF1R = CSF1R (UniProt P07333)
CSK = CSK (UniProt P41240)

Measured: number of time points

Cc1ncsc1-c1ccc(CNC(=O)[C@@H]2C[C@@H](O)CN2C(=O)[C@@H](NC(=O)COCCOc2ccc(-c3cc(Nc4ccc(OC(F)(F)F)cc4)ncn3)cc2)C(C)(C)C)cc1 (2.5 µM)
3: AURKA
2: BMX | BRAF_V600E | CHEK2
1: ALK | AURKB | BRAF
0: all other assays above

C=CC(=O)Nc1cccc(Oc2nc(Nc3ccc(N4CCN(C)CC4)cc3OC)ncc2Cl)c1 (10 µM)
2: BMX
0: all other assays above

CCc1c(C(=O)NNC(=O)[C@H](O)c2cc(F)cc(F)c2)ccc(O)c1C (10 µM)
0: all assays above

Cn1c(N2CCO[C@@H](c3ccc(F)cc3)C2)nc(-c2ccncn2)cc1=O (10 µM)
2: CSF1R
0: all other assays above

CNCCOc1ccccc1C1(Nc2nccn(-c3cc(C(=O)NC4CC4)cc(F)c3C)c2=O)CC1 (10 µM)
0: all assays above

CCn1c(N)c(C(=O)NC)c(=O)c2ccc(C#CC(C)(O)COC)nc21 (stereo not given) (10 µM)
0: all assays above

Nc1nccc(Oc2ccc3c(C(=O)Nc4cccc(C(F)(F)F)c4)cccc3c2)n1 (10 µM)
1: ARAF | BRAF_V600E | CAMK2A | CDK10
2: AURKC | CHEK2
0: all other assays above

Nc1ccc(O)c(C(=O)O)c1 [5-Aminosalicylic Acid] (10 µM)
0: all assays above

Cc1cccc(-c2nn3c(c2-c2ccnc4ccc(C(N)=O)cc24)CCC3)n1 [Galunisertib] (10 µM)
0: all assays above

Cc1nn(CC(F)(F)F)cc1Nc1ncc(Br)c(NCc2ccc(S(N)(=O)=O)cc2)n1 (10 µM)
0: all assays above

Cc1ccc(C2CC(=O)NC(SCC(=O)Nc3nccs3)=C2C#N)cc1 (stereo not given) [Necrostatin-34] (10 µM)
0: all assays above

O=C(Nc1ccccc1C(=O)NC1CCCCNC1=O)c1cc2ccccc2s1 (stereo not given) (10 µM)
1: BLK
0: all other assays above

O=C(C#Cc1ccccc1)c1cccc([N+](=O)[O-])c1 (10 µM)
0: all assays above

CC(C)(Oc1ccc(Cl)cc1)C(=O)Nc1ccc(OCc2ccc(C#N)cc2)cc1 [AMPK activator 4] (10 µM)
0: all assays above

CC(=O)O/N=C1/C(c2c(O)[nH]c3cc(Br)ccc23)=Nc2ccccc21 [BIO-acetoxime] (10 µM)
0: all assays above

Of the compounds above, two have a cyano group.
Cc1ccc(C2CC(=O)NC(SCC(=O)Nc3nccs3)=C2C#N)cc1 (stereo not given) [Necrostatin-34] (10 µM)
0: all assays above

CC(C)(Oc1ccc(Cl)cc1)C(=O)Nc1ccc(OCc2ccc(C#N)cc2)cc1 [AMPK activator 4] (10 µM)
0: all assays above

The list continues.

Cc1cc2c(F)c(Oc3ncnn4cc(OC[C@@H](C)OC(=O)[C@H](C)N)c(C)c34)ccc2[nH]1 [Brivanib (alaninate)] (10 µM)
0: all assays above

CN1CCC(Nc2ccc(C(=O)Nc3cc(-c4ccc5c(c4)OCO5)[nH]n3)cc2)CC1 (10 µM)
1: BRAF_V600E
2: AURKB
3: AURKA
0: all other assays above

CNC(=O)CN1CCC(Oc2cc3c(Nc4cccc(Cl)c4F)ncnc3cc2OC)CC1 [Sapitinib] (10 µM)
0: all assays above

CS(=O)(=O)c1ccc([C@@H](CC2CCCC2)C(=O)Nc2nccs2)cc1 (10 µM)
0: all assays above

COc1cc2nc(NC3CC3)nc(NC3CCN(C(C)C)CC3)c2cc1OC (10 µM)
1: AURKA | BMX | BRAF_V600E
3: BLK
0: all other assays above

Cc1nc(Nc2cnn(C3CCNCC3)c2)nc2c1N(C)C(=O)c1cc3ccccc3cc1N2C (2.5 µM)
0: all assays above

Cn1cc(-c2nc(N[C@@H]3CCCC[C@@H]3N)c(F)c3c2C(=O)NC3)cn1 [TAK-659 (hydrochloride)] (2 µM)
0: all assays above

COc1cc(N2CCC(O)CC2)ccc1Nc1nc(Nc2ccccc2S(=O)(=O)C(C)C)c2[nH]cnc2n1 (10 µM)
0: all assays above

Fc1ccc(-c2nc3n(c2-c2ccncc2)CCS3)cc1 (10 µM)
0: all assays above

CC(C)=CCC[C@](C)(O[C@@H]1O[C@H](CO[C@@H]2O[C@H](CO)[C@@H](O)[C@H](O)[C@H]2O)[C@@H](O)[C@H](O)[C@H]1O)[C@H]1CC[C@]2(C)[C@@H]1[C@H](O)C[C@@H]1[C@@]3(C)CC[C@H](O[C@@H]4O[C@H](CO)[C@@H](O)[C@H](O)[C@H]4O[C@@H]4O[C@H](CO)[C@@H](O)[C@H](O)[C@H]4O)C(C)(C)[C@@H]3CC[C@]12C [Ginsenoside Rb1] (10 µM)
0: all assays above

O=c1c(O)c(-c2ccc(O)c(O)c2)oc2cc(O)c(O)c(O)c12 [Quercetagetin] (10 µM)
0: all assays above

COc1c(Nc2ncc(Cl)c(N[C@H]3[C@@H](C(N)=O)[C@@H]4C=C[C@H]3C4)n2)ccc2c1CC[C@@H](N1CCOCC1)CC2 (10 µM)
2: CHEK2
0: all other assays above

CNCc1ccccc1Sc1cccc2ccccc12 [IFN alpha-IFNAR-IN-1 (hydrochloride)] (10 µM)
1: BRAF
2: ALK | AURKA | AURKB | BRAF_V600E
4: BMX
0: all other assays above

N#Cc1cc(-c2ccnc(Nc3ccc(N4CCOCC4)cc3)n2)ccc1OC1CCOCC1 (10 µM)
3: BRAF
0: all other assays above

NC(=O)c1ccccc1Nc1ccnc(Nc2cccc(O)c2)n1 (10 µM)
2: CAMK2G
1: BLK | BRAF_V600E | CHEK2
3: AURKA | AURKB | BMX
0: all other assays above

CN(C)C(=O)c1cc2cnc(Nc3ccc(N4CCN(CCCCNC(=O)COc5cccc6c5C(=O)N(C5CCC(=O)NC5=O)C6=O)CC4)cn3)nc2n1C1CCCC1 (stereo not given) (10 µM)
0: all assays above

CC(=O)O[C@@H]1[C@@H](OC(C)=O)[C@@H](O)[C@H](Oc2c(-c3ccc(O)cc3)oc3cc(O)cc(O)c3c2=O)O[C@H]1C (10 µM)
0: all assays above

Cc1cccc(CC(=O)N2CCc3c2ccc(-c2cn(C)c4ncnc(N)c24)c3F)n1 (10 µM)
1: BMX
0: all other assays above

CN(C)c1ccc(/C=C2\C(=O)Nc3ccccc32)c2ccccc12 (10 µM)
2: CSF1R
0: all other assays above
